The assay has as its system P388 leukemia ip, CD2F1 mice, survival T/C. In words: NCI In Vivo Anticancer Drug Screen. Data for tumor model P388 Leukemia (intraperitoneal) in CD2F1 (CDF1) mice. Particulars: T/C endpoint: median survival time, higher T/C = longer survival.
The mark [1] stands for this setting: dose: 50.0 mg/kg/injection, schedule: Q01DX005 (ip), vehicle: saline with Tween-80.
Setting [2] is: dose: 100.0 mg/kg/injection, schedule: Q01DX005 (ip), vehicle: saline with Tween-80.
[3] abbreviates: dose: 200.0 mg/kg/injection, schedule: Q01DX005 (ip), vehicle: saline with Tween-80.
The mark [4] stands for this setting: dose: 6.25 mg/kg/injection, schedule: Q01DX009 (ip), vehicle: saline.
Where [5] appears, read: dose: 100.0 mg/kg/injection, schedule: Q01DX009 (ip), vehicle: saline.
The mark [6] stands for this setting: dose: 200.0 mg/kg/injection, schedule: Q01DX009 (ip), vehicle: saline.

The list shows only some results of the screen, not a fair sample: it gathers tests that were run many times, whatever their T/C, doses with no T/C, and many T/C values between a quarter and a half above the control. Further doses and runs are listed elsewhere. T/C gives the treated animals as a percentage of the vehicle group. Some doses have a count of surviving animals in place of a T/C: the source holds a T/C of zero for them, seemingly a mark for toxic or unscored doses. Some survivor counts are full or nearly so, which does not show that the dose was tolerated: survival well below the control is almost never listed, so the zero probably covers shortened survival too. Counts of survivors are from the toxicity check (mostly the fifth day) where no day follows; animals may have died later. Schedules are NCI's codes, read here as Q, the interval in days (D) or hours (H), X, the number of doses. Some entries hold several experiments; their values stand side by side, smallest first. For survival time, the PubChem record calls one and a half times the control and up active, and a quarter to a half above the control has no call in these data; cut-offs in other NCI protocols can differ. Some T/C values are followed by the survivors on the day toxicity was checked, most often the fifth; where none is given, no animal had died by that day.

`CCCCCCCCCCCCCCCCCCOCC(O)CN(CCO)CCO` (stereo not drawn): the survivor count is on record as 6 of 6 (dose: 50.0 mg/kg/injection, schedule: Q01DX009 (ip), vehicle: Klucel (hydroxypropylcellulose) (HPC)); 2 of 6 (dose: 100.0 mg/kg/injection, schedule: Q01DX009 (ip), vehicle: Klucel (hydroxypropylcellulose) (HPC)); 0 of 6 (dose: 200.0 mg/kg/injection, schedule: Q01DX009 (ip), vehicle: Klucel (hydroxypropylcellulose) (HPC)).

In the case of `CCC[CH2][Sn]1([CH2]CCC)[O]C(=O)CC[S]1`, the T/C (dose: 12.5 mg/kg/injection, schedule: Q01DX005 (ip), vehicle: saline with Tween-80) was 130 % of control [4 of 6 alive]. The survivor count runs as follows: (dose: 25.0 mg/kg/injection, schedule: Q01DX005 (ip), vehicle: saline with Tween-80) 0 of 6 and 1 of 6; under setting [1], 1 of 6; under setting [2], 0 of 6; under setting [3], 0 of 6.

Take `C[C@@H]1CN1C1=CC(=O)C(N2C[C@H]2C)=CC1=O`: the T/C by setting is: (dose: 0.15 mg/kg/injection, schedule: Q01DX009 (ip), vehicle: gum acacia) 135 % of control; (dose: 0.62 mg/kg/injection, schedule: Q01DX009 (ip), vehicle: gum acacia) 137 % of control; (dose: 1.25 mg/kg/injection, schedule: Q01DX009 (ip), vehicle: gum acacia) 140 % of control. Also, the survivor count (dose: 20.0 mg/kg/injection, schedule: Q01DX009 (ip), vehicle: gum acacia) is given as 5 of 6.

Consider `O=C1CN(/N=C/c2ccc(-c3cccc(C(F)(F)F)c3)o2)C(=O)N1`, for which the survivor count (dose: 200.0 mg/kg/injection, schedule: Q04DX002 (ip), vehicle: saline with Tween-80) is listed as 3 of 6.

For the compound `COc1ccc(C2=NOP(c3ccccc3)(c3ccccc3)(c3ccccc3)C2)cc1`, the survivor count was 0 of 6 (dose: 50.0 mg/kg/injection, schedule: Q01DX009 (ip), vehicle: other); 0 of 6 (dose: 100.0 mg/kg/injection, schedule: Q01DX009 (ip), vehicle: other); 0 of 6 (dose: 200.0 mg/kg/injection, schedule: Q01DX009 (ip), vehicle: other); 0 of 6 (dose: 400.0 mg/kg/injection, schedule: Q01DX009 (ip), vehicle: other).

In the case of `COS(=O)(=O)OC1(SC)C=C(c2ccccc2)SS1` (stereo not drawn), the survivor count (dose: 100.0 mg/kg/injection, schedule: Q01DX001 (ip), vehicle: saline) is given as 2 of 6.

Take `Cc1ccc2c(c1)=N/C(=N/c1[nH]c(O)c3ccccc13)N=2`: the survivor count (dose: 12.5 mg/kg/injection, schedule: Q01DX009 (ip), vehicle: saline with Tween-80) is 6 of 6; the survivor count (dose: 25.0 mg/kg/injection, schedule: Q01DX009 (ip), vehicle: saline with Tween-80) was 6 of 6; the survivor count (dose: 200.0 mg/kg/injection, schedule: Q01DX009 (ip), vehicle: saline with Tween-80) is listed as 6 of 6.

Regarding `CC(/C=C/c1ccccc1)=N\NS(=O)(=O)c1ccc(C)cc1`, the survivor count under setting [3] is given as 6 of 6.

`CCCCNC(=S)NNC(=O)CNC(c1ccc(OC)cc1)C(CC)c1ccc(OC)cc1` (stereo not drawn): the survivor count (dose: 400.0 mg/kg/injection, schedule: Q01DX001 (ip), vehicle: saline with Tween-80) is given as 0 of 6.

For the compound `CN1CCc2cc3c(c4c2C1C(O)c1ccccc1-4)OCO3` (stereo not drawn), the survivor count reads like this: (dose: 0.5 mg/kg/injection, schedule: Q01DX009 (ip), vehicle: acid diluted with saline) 0 of 6 and 6 of 6; (dose: 1.0 mg/kg/injection, schedule: Q01DX009 (ip), vehicle: acid diluted with saline) 6 of 6.

Consider `O=c1cc2n(c(=O)n1Cc1ccccc1)CCC2`, for which the survivor count was 3 of 6 under setting [1], 0 of 6 under setting [2] and 0 of 6 under setting [3].

With `C1CCC2(CC1)N=C1CCCCC1S2` (stereo not drawn), the survivor count (dose: 50.0 mg/kg/injection, schedule: Q01DX005 (ip), vehicle: saline + Tween-80 + alcohol) is reported as 0 of 6; the survivor count (dose: 100.0 mg/kg/injection, schedule: Q01DX005 (ip), vehicle: saline + Tween-80 + alcohol) was 0 of 6; the survivor count (dose: 200.0 mg/kg/injection, schedule: Q01DX005 (ip), vehicle: saline + Tween-80 + alcohol) is 0 of 6.

Take `COc1cc(OC)c(NC(=O)C2=C(C)NC(C)=C(C(=O)Nc3cc(Cl)c(OC)cc3OC)C2c2cccc([N+](=O)[O-])c2)cc1Cl`: the survivor count (dose: 120.0 mg/kg/injection, schedule: Q01DX005 (ip), vehicle: Klucel (hydroxypropylcellulose) (HPC)) is listed as 6 of 6 and the survivor count (dose: 240.0 mg/kg/injection, schedule: Q01DX005 (ip), vehicle: Klucel (hydroxypropylcellulose) (HPC)) was 6 of 6.

On to `CCCCCCCCCCCCCCCC[N+]1(CC)CCCC1`, for which the survivor count is, setting by setting: (dose: 0.78 mg/kg/injection, schedule: Q01DX009 (ip), vehicle: saline) 1 of 6; (dose: 1.56 mg/kg/injection, schedule: Q01DX009 (ip), vehicle: saline) 0 of 6; (dose: 3.12 mg/kg/injection, schedule: Q01DX009 (ip), vehicle: saline) 4 of 6; under setting [4], 2 of 6; (dose: 12.5 mg/kg/injection, schedule: Q01DX009 (ip), vehicle: saline) 0 of 6; (dose: 50.0 mg/kg/injection, schedule: Q01DX009 (ip), vehicle: saline) 0 of 6. Also, the survivor count is, setting by setting: under setting [5], 0 of 6; under setting [6], 0 of 6.

As for `CC1(C)N=C(N)N=C(N)N1c1ccc(Cl)c(C(F)(F)F)c1`, the T/C is 134 % of control (dose: 3.12 mg/kg/injection, schedule: Q01DX009 (ip), vehicle: suspension in saline); 133 % of control under setting [4]; 146 % of control (dose: 6.25 mg/kg/injection, schedule: Q01DX009 (ip), vehicle: suspension in saline); 126 % of control (dose: 25.0 mg/kg/injection, schedule: Q01DX009 (ip), vehicle: saline).

With `Nc1cccc2nccn12`, the survivor count is 0 of 6 and 1 of 6 under setting [5]; 0 of 6 under setting [6].

For the compound `CC1OC(OC2C(CO)OC(O[C@H]3CC[C@@]4(C)C(=CC[C@H]5[C@@H]6C[C@@H]7O[C@]8(CC[C@@H](C)CN8)[C@@H](C)[C@@H]7[C@@]6(C)CC[C@@H]54)C3)C(O)C2O)C(O)C(O)C1O` (stereo partly drawn), the survivor count is, setting by setting: (dose: 100.0 mg/kg/injection, schedule: Q01DX005 (ip), vehicle: acid diluted with saline) 5 of 6; (dose: 200.0 mg/kg/injection, schedule: Q01DX005 (ip), vehicle: acid diluted with saline) 3 of 6.

For `CN(c1ccccc1)P(=O)(N1CC1)N1CC1`, the T/C was 140 % of control (dose: 16.5 mg/kg/injection, schedule: Q04DX003 (ip), vehicle: saline with Tween-80) and 127 % of control (dose: 25.0 mg/kg/injection, schedule: Q01DX009 (ip), vehicle: saline sonified). Besides, the survivor count is 6 of 6 (dose: 50.0 mg/kg/injection, schedule: Q01DX009 (ip), vehicle: saline sonified); 5 of 6 (dose: 50.0 mg/kg/injection, schedule: Q04DX003 (ip), vehicle: saline with Tween-80); 3 of 6 (dose: 100.0 mg/kg/injection, schedule: Q04DX003 (ip), vehicle: saline with Tween-80).

Turning to `O=C1C(Cl)=C(Cl)C(Cl)(Cl)C(Cl)=C1Cl`, the survivor count was 3 of 6 (dose: 100.0 mg/kg/injection, schedule: Q01DX001 (ip), vehicle: Klucel (hydroxypropylcellulose) (HPC)); 0 of 6 (dose: 200.0 mg/kg/injection, schedule: Q01DX001 (ip), vehicle: Klucel (hydroxypropylcellulose) (HPC)); 0 of 6 (dose: 400.0 mg/kg/injection, schedule: Q01DX001 (ip), vehicle: Klucel (hydroxypropylcellulose) (HPC)).

Regarding `CC(C)(C)C(=O)Oc1cc2c(cc1OC(=O)C(C)(C)C)C(c1ccccc1)CNCC2` (stereo not drawn), the survivor count (dose: 100.0 mg/kg/injection, schedule: Q01DX009 (ip), vehicle: saline with Tween-80) is reported as 3 of 6.

The record behind these values is PubChem BioAssay AID330 (DTP/NCI, 2004).
